{"source": "paper PMC10954469", "about": "“Molecular and thermodynamic determinants of self-assembly and hetero-oligomerization in the enterobacterial thermo-osmo-regulatory protein H-NS” (Nucleic Acids Research, 2024)", "key": {"[1]": {"target": "H-NS (histone-like or heat-stable nucleoid structuring protein), wild type (uropathogenic E. coli)", "assay": "SEC; HiLoad 26/600 Superdex 200 pg, 15, 50, 100 and 200 μM protein, 300 mM ionic strength buffer (20 mM sodium phosphate plus NaCl), pH 7, 25°C; both purified"}, "[2]": {"target": "H-NS (histone-like or heat-stable nucleoid structuring protein), wild type (uropathogenic E. coli)", "assay": "AUC + other: differential scanning calorimetry; thermodynamic model compared with AUC populations (20°C) and DSC curves (15-225 μM); 300 mM ionic strength, pH 7; both purified"}}, "note": "No constants are given. Whether binding was seen depends on the method and setting. Some entries that bind do so weakly or less than the wild type. Where a sequence is shown, tags or fusion partners need not be part of it.", "data": [{"binder": "H-NS (histone-like or heat-stable nucleoid structuring protein), wild type (natural protein, uropathogenic E. coli, H-NS from uropathogenic E. coli, 137 residues as printed; Polydisperse in solution: monomers, dimers, tetramers and octamers; Expressed as H-NS:intein:CBD fusion; also called H-NS WT; wild-type H-NS; source: E. coli BL21(DE3), pTXB1 vector, purified (chitin column, intein cleavage, Superdex 200 SEC)) MSEALKILNNIRTLRAQARECTLETLEEMLEKLEVVVNERREEESAAAAEVEERTRKLQQYREMLIADGIDPNELLNSLAAVKSGTKAKRAQRPAKYSYVDENGETKTWTGQGRTPAVIKKAMDEQGKSLDDFLIKQ", "values": [{"measurement": "binding", "setting": "[1]", "value": "binds"}, {"measurement": "binding", "setting": "[2]", "value": "binds"}]}]}
